The source of these data is patent US20050130235A1.

The chains behind the UniProt entries cited, without tags or fusion partners. Residues count along the entry.
UniProt P01012, residues 2-386: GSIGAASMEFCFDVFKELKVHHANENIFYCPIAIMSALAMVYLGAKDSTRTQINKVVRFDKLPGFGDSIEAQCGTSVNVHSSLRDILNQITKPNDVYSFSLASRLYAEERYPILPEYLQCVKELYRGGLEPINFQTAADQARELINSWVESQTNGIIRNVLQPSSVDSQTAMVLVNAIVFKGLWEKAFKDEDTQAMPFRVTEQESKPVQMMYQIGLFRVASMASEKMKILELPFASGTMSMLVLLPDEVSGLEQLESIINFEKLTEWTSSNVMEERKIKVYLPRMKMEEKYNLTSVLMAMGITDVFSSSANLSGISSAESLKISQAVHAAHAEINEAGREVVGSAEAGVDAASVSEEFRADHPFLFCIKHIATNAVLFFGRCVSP
UniProt P10968, residues 27-197: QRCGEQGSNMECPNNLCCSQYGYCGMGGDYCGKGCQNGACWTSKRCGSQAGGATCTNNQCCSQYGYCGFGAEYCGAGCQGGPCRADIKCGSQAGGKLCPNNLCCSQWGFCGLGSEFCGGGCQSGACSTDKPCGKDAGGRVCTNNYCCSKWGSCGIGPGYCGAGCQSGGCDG

These are yes or no findings as the source states them, for the method shown. Some binding calls cover weakened binding; strength is not graded here.

For this test, the target named is ovalbumin (UniProt P01012). Description: lectin blot, WGA-HRP.

As to “wheat-germ agglutinin (WGA) lectin (from UniProt P10968 27-197)”, the binding entry is “binds”.
